Some of the results follow.

Chains of the proteins cited; added tags and fusions are not shown. Lines headed by an entry give the natural chain unless they say otherwise; changes in a name come on top.
UniProt Q7Z3U7: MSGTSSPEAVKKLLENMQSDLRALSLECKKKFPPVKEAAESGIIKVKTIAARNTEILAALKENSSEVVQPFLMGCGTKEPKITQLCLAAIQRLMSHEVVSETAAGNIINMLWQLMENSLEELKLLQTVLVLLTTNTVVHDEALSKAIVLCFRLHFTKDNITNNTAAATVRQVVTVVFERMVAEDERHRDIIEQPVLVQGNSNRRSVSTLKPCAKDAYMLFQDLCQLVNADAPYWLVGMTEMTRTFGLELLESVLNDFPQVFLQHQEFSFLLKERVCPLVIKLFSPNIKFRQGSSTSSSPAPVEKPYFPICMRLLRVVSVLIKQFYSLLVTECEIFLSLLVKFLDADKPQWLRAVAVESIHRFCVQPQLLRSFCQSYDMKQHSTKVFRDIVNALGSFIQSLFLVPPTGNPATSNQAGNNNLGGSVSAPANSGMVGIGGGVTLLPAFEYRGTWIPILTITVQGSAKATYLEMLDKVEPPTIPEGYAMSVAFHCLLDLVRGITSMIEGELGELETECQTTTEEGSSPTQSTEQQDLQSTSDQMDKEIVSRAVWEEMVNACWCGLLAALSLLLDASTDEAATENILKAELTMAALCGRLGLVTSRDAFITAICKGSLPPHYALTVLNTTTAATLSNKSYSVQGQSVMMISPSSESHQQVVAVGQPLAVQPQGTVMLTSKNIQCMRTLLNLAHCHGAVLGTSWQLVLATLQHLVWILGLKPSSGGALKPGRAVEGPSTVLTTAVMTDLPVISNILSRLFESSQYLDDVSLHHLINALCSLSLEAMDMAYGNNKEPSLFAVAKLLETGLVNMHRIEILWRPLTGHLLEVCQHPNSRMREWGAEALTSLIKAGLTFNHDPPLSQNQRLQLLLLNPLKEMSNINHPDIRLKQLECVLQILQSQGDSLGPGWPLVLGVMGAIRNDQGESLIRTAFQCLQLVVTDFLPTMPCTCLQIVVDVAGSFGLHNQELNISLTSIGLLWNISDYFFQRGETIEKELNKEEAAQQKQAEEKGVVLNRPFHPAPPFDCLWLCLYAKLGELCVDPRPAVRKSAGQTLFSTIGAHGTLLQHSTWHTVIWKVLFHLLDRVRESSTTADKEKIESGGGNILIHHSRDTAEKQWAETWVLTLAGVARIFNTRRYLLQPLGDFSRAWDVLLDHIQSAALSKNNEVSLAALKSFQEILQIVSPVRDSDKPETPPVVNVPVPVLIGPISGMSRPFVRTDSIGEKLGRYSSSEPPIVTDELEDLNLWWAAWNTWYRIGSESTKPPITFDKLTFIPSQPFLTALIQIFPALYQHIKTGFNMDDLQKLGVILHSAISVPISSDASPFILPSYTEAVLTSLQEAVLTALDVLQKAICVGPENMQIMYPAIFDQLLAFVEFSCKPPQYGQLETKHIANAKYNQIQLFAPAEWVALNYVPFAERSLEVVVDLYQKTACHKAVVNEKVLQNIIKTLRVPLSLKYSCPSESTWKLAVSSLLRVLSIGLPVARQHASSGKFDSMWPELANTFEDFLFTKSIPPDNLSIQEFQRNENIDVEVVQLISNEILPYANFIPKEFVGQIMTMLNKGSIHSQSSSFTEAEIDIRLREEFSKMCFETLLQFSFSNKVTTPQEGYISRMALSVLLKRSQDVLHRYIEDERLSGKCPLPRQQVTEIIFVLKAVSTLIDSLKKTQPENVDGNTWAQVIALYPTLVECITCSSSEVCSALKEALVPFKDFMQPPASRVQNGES
UniProt Q9UBU8, whole entry, looked up: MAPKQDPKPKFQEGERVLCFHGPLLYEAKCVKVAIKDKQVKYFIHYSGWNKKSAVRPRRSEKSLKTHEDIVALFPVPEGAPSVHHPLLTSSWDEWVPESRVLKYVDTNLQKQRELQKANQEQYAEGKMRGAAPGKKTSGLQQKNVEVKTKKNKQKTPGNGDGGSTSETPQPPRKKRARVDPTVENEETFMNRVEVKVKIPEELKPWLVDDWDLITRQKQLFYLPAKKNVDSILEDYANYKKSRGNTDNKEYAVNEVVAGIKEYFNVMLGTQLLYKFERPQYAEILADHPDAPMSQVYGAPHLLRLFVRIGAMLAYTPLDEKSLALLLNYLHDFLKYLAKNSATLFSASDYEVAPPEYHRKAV
UniProt O95563: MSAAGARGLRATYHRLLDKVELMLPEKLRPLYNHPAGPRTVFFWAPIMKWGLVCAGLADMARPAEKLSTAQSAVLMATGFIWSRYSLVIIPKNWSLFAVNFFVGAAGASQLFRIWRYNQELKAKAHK
UniProt P22033: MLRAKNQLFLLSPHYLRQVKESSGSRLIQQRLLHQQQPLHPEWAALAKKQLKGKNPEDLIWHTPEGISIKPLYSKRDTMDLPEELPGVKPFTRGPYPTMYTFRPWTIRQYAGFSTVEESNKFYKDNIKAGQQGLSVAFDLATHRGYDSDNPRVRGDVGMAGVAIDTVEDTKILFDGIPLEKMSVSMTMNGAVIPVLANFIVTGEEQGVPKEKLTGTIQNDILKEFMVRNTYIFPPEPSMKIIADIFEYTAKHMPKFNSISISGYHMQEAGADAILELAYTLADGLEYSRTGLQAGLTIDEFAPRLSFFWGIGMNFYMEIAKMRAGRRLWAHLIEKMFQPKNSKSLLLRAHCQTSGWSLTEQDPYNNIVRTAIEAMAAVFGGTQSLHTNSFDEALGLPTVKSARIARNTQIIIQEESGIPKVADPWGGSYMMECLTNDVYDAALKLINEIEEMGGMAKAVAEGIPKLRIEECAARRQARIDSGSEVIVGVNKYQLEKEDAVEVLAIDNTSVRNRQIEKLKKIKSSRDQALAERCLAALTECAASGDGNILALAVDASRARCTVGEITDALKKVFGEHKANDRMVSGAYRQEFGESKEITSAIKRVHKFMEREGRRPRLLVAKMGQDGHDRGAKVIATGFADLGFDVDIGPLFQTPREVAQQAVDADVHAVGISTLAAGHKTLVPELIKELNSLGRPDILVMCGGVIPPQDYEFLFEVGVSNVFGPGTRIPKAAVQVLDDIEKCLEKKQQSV
UniProt Q9Y6X9: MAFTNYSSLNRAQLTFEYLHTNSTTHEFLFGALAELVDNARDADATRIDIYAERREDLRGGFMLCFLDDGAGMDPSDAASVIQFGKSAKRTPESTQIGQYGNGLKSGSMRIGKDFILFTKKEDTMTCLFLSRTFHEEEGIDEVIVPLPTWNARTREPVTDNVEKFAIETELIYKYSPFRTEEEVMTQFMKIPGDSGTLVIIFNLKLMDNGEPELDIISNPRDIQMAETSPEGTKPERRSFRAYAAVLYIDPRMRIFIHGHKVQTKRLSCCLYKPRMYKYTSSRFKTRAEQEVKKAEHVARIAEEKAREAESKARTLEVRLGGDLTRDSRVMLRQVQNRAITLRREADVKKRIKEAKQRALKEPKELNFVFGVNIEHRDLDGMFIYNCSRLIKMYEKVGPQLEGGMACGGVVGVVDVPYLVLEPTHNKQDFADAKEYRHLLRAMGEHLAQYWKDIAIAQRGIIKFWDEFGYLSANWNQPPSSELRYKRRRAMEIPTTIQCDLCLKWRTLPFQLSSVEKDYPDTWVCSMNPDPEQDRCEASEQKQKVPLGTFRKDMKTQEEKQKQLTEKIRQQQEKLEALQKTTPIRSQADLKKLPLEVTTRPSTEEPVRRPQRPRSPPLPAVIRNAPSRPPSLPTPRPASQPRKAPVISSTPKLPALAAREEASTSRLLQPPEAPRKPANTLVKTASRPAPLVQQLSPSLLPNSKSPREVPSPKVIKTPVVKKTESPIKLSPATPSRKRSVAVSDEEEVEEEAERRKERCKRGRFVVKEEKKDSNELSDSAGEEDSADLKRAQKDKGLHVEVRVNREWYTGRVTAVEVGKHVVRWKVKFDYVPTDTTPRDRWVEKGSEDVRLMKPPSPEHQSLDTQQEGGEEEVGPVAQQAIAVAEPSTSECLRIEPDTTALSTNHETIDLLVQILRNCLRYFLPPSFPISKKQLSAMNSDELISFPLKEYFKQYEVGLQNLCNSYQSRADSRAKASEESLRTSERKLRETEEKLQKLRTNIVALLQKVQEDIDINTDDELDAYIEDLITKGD
UniProt Q96EY8: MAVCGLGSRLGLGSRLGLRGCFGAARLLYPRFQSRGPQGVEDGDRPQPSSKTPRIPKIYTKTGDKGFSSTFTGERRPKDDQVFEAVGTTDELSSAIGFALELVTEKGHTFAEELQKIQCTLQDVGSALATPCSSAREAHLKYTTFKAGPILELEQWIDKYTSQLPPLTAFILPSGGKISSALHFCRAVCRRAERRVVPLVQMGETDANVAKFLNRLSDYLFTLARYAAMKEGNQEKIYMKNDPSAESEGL
UniProt Q9HC36: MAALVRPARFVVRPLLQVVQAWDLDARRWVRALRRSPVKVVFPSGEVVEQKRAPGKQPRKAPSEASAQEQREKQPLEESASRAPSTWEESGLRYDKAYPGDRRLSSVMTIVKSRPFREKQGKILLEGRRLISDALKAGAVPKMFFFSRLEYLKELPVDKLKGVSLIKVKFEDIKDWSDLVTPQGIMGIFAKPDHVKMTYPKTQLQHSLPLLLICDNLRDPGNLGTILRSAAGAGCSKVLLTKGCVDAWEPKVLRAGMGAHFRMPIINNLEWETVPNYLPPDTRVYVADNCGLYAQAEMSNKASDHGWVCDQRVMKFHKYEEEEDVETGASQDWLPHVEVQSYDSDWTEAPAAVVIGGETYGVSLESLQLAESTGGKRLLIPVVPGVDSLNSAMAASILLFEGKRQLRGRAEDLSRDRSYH
UniProt Q15014, whole entry, looked up: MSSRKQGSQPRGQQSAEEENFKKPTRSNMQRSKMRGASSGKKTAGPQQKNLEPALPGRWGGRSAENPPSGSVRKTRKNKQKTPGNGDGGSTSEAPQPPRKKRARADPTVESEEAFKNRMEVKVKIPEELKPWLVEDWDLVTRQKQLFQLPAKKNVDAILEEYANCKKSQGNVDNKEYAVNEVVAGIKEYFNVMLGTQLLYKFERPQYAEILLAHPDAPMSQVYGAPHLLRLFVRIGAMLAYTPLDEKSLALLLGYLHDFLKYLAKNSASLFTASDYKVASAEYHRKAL
UniProt O14880: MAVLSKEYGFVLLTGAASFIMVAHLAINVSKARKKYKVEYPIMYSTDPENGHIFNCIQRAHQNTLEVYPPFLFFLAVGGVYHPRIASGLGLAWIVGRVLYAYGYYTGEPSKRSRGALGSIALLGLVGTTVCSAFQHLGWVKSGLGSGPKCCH
UniProt Q9UNW1: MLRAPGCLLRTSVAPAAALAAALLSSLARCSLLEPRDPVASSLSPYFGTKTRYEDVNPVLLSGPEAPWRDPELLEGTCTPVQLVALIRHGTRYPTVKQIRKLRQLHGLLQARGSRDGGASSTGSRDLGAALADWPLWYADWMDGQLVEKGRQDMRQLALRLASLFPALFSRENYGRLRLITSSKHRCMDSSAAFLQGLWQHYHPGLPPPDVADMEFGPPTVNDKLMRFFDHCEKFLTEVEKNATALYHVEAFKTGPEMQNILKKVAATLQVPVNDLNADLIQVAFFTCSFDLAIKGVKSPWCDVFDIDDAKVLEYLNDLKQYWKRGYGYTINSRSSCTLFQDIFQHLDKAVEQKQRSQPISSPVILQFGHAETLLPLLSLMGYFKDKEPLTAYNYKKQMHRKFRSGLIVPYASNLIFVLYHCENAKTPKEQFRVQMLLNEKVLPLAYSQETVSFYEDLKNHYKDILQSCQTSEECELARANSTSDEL
UniProt Q9HCE1: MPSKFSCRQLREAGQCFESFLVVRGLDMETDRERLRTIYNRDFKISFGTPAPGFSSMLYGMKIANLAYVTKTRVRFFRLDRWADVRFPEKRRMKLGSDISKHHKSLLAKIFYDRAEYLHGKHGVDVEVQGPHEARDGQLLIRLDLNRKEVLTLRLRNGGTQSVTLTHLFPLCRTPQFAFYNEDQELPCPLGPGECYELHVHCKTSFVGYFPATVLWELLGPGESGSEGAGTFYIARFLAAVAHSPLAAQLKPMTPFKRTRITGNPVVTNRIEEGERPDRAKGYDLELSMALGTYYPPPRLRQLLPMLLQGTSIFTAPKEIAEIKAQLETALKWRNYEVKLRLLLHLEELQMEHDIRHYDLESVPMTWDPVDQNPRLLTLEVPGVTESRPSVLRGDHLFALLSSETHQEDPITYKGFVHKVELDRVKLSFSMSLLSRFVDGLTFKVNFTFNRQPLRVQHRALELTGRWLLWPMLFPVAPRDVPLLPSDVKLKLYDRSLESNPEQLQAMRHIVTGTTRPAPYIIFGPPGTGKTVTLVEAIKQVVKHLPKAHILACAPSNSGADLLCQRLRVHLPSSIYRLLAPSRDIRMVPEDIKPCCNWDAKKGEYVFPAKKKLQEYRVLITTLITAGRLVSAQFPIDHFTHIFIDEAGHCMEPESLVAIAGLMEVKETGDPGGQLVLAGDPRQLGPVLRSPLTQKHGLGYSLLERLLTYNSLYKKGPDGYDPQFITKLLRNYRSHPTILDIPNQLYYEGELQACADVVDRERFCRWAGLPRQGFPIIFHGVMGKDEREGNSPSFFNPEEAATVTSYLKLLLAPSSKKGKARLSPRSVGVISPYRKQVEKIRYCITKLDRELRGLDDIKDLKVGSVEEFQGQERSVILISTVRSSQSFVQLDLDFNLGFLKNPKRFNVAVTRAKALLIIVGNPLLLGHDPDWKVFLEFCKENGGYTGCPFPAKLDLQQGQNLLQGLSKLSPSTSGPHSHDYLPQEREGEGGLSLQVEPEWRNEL

Compound in this assay: CCCS(=O)(=O)Nc1ccc(F)c(C(=O)c2c[nH]c3ncc(-c4ccc(Cl)cc4)cc23)c1F [vemurafenib]
Description: log2 fold change, soluble protein after heating vs DMSO (PISA); higher = thermal stabilisation; K562 lysate, 10 uM; active = over 0.2 and 3.5 SD of the protein, either way, in both replicates (recomputed). The essentials: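 Quantification was by TMTpro 16plex LC-MS/MS with equalised channel sums, applied to the supernatant after 21,000xg for 90 min. Samples were crude K562 extract at 1 mg/mL protein in PBS pH 7.4 with 1 mM MgCl2, treated with 10 μM compound for 30 min, heated for 3 min across 48°C-58°C, pooled and brought to 0.5% NP-40 at 4°C. Values are log-two fold changes in thermal stability relative to solvent controls, from duplicates.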
MON2 isoform 5 (UniProt Q7Z3U7): the log2 fold change is inactive: -0.015.

For MORF4L1 isoform 2 (UniProt Q9UBU8), the log2 fold change was inactive: 0.034.

As for MPC2 (UniProt O95563), the log2 fold change was inactive: 0.023.

Consider MIOS (UniProt Q9NXC5), for which the log2 fold change is inactive: 0.039.

As to MKRN2 (UniProt Q9H000), the log2 fold change is inactive: 0.003.

Take MMUT (UniProt P22033): the log2 fold change was inactive: -0.006.

In the case of MORC2 (UniProt Q9Y6X9), the log2 fold change was inactive: 0.049.

Consider MMAB (UniProt Q96EY8), for which the log2 fold change is inactive: 0.01.

As for MRPL19 (UniProt P49406), the log2 fold change was inactive: 0.026.

As for MRM3 (UniProt Q9HC36), the log2 fold change was inactive: -0.038.

MORF4L2 (UniProt Q15014): the log2 fold change was inactive: -0.021.

Take MLXIP (UniProt Q9HAP2): the log2 fold change is inactive: 0.004.

Turning to MGST3 (UniProt O14880), the log2 fold change was inactive: 0.012.

As for MINPP1 (UniProt Q9UNW1), the log2 fold change is inactive: -0.009.

Regarding MOV10 (UniProt Q9HCE1), the log2 fold change was inactive: 0.003.

These data come from the supplement of paper PMC10849652.
